In the supplement of paper PMC10849652 one finds log2 fold change data, which are given here for eleven targets.

Chains of the proteins cited; added tags and fusions are not shown. Lines headed by an entry give the natural chain unless they say otherwise; changes in a name come on top.
UniProt P51795: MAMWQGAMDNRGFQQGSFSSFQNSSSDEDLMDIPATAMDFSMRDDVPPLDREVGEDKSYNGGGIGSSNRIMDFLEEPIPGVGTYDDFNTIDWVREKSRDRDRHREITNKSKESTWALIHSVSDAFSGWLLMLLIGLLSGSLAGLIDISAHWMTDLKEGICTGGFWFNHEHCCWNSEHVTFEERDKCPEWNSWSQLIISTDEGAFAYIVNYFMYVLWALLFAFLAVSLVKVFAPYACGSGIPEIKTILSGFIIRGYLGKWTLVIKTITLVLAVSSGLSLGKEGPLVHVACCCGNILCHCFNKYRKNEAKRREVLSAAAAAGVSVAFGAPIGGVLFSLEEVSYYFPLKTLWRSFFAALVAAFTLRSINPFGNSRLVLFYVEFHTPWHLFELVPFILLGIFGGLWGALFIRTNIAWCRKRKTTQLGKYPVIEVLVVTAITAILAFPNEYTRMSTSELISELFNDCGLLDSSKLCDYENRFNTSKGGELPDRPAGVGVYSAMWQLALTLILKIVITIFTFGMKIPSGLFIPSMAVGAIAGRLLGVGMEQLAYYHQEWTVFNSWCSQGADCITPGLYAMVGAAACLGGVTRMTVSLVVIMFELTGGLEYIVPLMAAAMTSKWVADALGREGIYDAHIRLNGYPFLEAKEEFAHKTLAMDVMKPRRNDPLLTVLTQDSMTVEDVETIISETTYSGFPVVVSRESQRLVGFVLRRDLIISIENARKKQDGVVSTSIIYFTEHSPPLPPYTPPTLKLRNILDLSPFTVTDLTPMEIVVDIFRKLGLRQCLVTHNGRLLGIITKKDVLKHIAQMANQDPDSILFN
UniProt Q99967: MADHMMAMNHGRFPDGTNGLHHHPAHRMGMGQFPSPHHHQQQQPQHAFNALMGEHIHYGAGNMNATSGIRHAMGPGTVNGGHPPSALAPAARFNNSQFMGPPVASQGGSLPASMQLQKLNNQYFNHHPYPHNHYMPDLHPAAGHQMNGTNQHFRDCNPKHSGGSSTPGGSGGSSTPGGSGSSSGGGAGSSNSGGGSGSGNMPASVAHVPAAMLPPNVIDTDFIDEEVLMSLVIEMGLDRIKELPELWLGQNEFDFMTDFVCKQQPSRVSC
UniProt P30622: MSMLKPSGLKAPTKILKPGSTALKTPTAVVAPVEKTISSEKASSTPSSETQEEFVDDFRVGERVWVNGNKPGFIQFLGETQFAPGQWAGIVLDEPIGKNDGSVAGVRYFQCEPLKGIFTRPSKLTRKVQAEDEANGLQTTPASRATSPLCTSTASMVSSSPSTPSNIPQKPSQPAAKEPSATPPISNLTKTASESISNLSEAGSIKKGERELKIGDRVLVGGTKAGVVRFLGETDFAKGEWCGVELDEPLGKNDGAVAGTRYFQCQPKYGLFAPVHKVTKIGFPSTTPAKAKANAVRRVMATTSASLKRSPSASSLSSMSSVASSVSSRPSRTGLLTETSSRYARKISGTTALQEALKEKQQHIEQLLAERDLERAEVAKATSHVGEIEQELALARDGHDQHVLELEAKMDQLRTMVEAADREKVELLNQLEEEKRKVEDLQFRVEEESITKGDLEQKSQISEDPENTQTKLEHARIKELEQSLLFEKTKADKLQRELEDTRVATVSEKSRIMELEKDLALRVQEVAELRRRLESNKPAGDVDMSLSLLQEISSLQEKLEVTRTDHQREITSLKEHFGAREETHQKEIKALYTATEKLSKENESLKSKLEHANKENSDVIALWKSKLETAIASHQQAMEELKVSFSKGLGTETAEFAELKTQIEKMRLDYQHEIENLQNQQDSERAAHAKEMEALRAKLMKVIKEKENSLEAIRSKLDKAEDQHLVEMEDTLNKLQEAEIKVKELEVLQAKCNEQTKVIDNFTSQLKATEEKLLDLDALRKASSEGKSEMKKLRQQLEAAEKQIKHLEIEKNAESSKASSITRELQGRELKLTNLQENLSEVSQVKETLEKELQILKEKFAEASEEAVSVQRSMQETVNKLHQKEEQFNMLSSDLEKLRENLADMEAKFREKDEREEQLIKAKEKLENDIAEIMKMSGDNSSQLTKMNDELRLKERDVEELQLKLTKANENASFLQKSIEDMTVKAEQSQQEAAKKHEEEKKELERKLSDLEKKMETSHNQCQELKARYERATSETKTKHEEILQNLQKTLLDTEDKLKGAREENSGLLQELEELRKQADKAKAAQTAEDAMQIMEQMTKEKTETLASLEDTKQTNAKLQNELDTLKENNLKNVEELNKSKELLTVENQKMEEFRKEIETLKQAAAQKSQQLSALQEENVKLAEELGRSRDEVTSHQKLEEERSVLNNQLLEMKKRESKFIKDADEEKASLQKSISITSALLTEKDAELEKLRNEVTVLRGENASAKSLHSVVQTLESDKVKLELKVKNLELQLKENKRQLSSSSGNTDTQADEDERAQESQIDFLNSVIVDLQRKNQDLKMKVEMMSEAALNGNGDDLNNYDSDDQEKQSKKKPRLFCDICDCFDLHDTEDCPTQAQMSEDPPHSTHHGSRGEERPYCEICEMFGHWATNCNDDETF
UniProt Q86X95: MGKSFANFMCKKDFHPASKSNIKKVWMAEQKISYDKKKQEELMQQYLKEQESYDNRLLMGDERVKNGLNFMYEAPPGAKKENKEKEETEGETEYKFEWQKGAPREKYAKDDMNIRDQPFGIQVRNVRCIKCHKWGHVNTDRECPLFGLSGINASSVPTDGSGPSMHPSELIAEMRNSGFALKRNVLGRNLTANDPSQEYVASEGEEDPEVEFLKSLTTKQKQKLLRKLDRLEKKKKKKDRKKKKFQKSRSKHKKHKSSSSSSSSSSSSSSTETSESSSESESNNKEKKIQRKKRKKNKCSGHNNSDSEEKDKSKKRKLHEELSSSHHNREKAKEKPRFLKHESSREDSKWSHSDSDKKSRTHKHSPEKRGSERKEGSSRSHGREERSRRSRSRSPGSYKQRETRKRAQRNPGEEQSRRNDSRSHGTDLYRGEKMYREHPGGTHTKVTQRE
UniProt Q8IZ52: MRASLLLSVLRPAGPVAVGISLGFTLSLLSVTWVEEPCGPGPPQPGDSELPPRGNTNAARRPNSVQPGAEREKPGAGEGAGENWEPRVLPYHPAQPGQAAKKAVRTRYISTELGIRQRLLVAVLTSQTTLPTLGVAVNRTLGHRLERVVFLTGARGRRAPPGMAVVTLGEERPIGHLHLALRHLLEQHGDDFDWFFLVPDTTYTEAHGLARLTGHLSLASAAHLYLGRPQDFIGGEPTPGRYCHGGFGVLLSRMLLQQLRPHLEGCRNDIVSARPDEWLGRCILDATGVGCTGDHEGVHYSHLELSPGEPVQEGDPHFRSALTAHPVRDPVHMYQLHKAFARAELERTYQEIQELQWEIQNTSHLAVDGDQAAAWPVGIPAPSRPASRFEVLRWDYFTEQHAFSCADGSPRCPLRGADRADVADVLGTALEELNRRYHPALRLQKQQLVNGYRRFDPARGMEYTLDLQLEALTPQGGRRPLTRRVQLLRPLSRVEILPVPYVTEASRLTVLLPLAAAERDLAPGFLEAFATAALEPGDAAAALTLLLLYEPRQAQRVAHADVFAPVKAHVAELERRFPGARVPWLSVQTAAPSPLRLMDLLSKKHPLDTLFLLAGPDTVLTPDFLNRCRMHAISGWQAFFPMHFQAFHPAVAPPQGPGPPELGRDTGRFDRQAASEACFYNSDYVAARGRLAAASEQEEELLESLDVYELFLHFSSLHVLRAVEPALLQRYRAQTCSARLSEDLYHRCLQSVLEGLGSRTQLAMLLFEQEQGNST
UniProt P33552, whole entry, looked up: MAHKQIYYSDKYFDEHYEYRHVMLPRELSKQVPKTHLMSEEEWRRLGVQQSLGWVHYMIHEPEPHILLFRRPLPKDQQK
UniProt O94985: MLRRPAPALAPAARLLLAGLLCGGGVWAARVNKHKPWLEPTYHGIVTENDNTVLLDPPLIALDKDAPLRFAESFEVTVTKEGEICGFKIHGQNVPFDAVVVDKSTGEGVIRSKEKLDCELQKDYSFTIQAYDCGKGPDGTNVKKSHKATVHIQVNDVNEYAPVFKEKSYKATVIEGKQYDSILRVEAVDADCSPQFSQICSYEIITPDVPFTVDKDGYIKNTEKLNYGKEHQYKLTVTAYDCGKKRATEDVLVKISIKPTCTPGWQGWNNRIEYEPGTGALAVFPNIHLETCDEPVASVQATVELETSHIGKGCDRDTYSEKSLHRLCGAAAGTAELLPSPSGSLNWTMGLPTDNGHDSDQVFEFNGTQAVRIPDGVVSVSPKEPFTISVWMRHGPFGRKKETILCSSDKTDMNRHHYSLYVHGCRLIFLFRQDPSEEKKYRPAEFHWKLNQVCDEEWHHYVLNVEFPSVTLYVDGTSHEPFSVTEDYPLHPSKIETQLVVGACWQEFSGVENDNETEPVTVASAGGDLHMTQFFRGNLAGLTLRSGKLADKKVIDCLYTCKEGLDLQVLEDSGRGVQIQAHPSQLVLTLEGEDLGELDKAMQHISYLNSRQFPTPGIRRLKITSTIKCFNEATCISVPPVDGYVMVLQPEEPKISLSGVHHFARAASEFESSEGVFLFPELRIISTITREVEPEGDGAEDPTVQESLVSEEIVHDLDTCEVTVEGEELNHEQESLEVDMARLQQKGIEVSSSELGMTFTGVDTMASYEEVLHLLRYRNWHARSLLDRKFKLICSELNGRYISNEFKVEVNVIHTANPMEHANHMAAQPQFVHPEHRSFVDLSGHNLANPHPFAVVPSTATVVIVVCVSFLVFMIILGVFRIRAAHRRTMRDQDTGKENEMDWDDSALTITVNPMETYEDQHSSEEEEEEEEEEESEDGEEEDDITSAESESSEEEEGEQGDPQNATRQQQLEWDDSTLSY
UniProt Q07065: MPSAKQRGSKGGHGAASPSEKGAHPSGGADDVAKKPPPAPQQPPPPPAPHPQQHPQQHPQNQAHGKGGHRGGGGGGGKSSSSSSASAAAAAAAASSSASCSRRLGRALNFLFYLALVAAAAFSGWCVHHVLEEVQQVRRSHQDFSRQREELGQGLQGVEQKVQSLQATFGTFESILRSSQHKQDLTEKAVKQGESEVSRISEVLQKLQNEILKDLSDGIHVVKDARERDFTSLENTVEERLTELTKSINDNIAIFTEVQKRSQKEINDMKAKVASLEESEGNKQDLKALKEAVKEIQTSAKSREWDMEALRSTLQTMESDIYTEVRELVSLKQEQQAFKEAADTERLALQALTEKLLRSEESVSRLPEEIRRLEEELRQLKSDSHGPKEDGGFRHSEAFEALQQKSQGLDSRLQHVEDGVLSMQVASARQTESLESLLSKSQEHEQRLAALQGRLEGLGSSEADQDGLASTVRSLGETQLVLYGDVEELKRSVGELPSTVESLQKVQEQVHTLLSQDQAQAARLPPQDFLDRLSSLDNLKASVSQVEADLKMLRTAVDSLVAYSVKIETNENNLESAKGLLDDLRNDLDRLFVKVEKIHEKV
UniProt Q9UDT6: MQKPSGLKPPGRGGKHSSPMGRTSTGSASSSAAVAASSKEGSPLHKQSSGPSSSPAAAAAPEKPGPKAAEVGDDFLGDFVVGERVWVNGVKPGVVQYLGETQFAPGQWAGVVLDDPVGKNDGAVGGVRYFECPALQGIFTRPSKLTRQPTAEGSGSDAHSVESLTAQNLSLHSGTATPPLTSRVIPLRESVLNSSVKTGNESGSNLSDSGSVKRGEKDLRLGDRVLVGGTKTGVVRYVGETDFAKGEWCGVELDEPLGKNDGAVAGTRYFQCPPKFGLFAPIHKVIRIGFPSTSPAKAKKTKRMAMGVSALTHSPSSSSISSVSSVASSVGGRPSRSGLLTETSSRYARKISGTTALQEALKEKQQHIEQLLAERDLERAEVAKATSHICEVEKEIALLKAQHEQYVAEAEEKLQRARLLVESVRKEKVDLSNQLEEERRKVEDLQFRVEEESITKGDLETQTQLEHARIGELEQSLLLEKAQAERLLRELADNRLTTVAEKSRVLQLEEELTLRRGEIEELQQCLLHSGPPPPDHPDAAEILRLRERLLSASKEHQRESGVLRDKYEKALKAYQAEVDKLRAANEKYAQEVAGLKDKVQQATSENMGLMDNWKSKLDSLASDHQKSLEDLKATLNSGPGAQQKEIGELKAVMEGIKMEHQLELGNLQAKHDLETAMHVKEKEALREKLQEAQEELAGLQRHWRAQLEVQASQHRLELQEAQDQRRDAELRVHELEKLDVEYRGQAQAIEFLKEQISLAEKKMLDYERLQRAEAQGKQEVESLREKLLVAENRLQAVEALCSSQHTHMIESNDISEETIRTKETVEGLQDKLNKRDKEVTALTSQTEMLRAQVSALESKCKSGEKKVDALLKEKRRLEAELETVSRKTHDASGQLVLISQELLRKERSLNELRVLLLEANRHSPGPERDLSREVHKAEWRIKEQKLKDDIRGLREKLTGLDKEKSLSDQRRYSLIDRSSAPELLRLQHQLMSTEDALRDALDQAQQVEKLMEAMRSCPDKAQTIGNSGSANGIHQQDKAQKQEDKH

The list shows a part of the results.

What all share (experiment): log2 fold change, soluble protein after heating vs DMSO (PISA); higher = thermal stabilisation; K562 lysate, 10 uM; active = over 0.2 and 3.5 SD of the protein, either way, in both replicates (recomputed)
Compound in assay [1]: c1cn2cc(-c3ccc4cn[nH]c4c3)nc(Nc3ccc(N4CCOCC4)cc3)c2n1 [entospletinib]
Put shortly: (§1)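 Dounce homogenisation of K562 pellets in PBS pH 7.4 with 1 mM MgCl2 produced a crude extract, used at 1 mg/mL protein. Exposure to 10 μM compound lasted 30 min, and aliquots were then heated for 3 min across 48°C-58°C, pooled and brought to 0.5% NP-40 at 4°C. The supernatant after 21,000xg for 90 min was quantified by TMTpro 16plex LC-MS/MS with channel sums equalised. Duplicate values are given as log-two fold change in thermal stability relative to solvent controls.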

Compound in assay [2]: O=C(CCCCCCC(=O)Nc1ccccc1)NO [vorinostat]
The gist of the method: as §1

Compound in assay [3]: O=C(O)c1ccc2c(c1)nc(Nc1cccc(Cl)c1)c1ccncc12 [silmitasertib]
The gist of the method:
as §1

Compound in assay [4]: O=C1NC(=O)C(c2cnc3ccccn23)=C1c1cn2c3c(cc(F)cc13)CN(C(=O)N1CCCCC1)CC2
Put shortly: as §1

Compound in assay [5]: NCC(=O)Nc1ccc(-n2nc(C(F)(F)F)cc2-c2ccc3c(ccc4ccccc43)c2)cc1
The gist of the method:
as §1

On to CLDN7 (UniProt O95471), for which, in assay [1], the log2 fold change is inactive: -0.108.

As for CLCN5 isoform 2 (UniProt P51795), the log2 fold change in assay [2] is inactive: -0.055; in assay [3], inactive: -0.013.

For the target CITED2 (UniProt Q99967), the log2 fold change in assay [2] was inactive: -0.004; in assay [3], inactive: -0.036.

Regarding CLIP1 isoform 2 (UniProt P30622), the log2 fold change in assay [2] was inactive: 0.167; in assay [3], inactive: -0.035; in assay [4] it was inactive: 0.002; in assay [1] it was inactive: -0.151.

On to CIR1 (UniProt Q86X95), for which the log2 fold change was inactive: -0.047 in assay [4] and inactive: 0.038 in assay [1].

With CHPF (UniProt Q8IZ52), the log2 fold change in assay [2] is inactive: 0.083; in assay [3], inactive: 0.018; in assay [4], inactive: -0.189; in assay [1], inactive: 0.029.

Turning to CHD4, A0A2R8Y521, the log2 fold change in assay [1] is inactive: -0.313.

On to CKS2 (UniProt P33552), for which the figures for the log2 fold change in assay [5] and in assay [1] were inactive: -0.266 and inactive: -0.136, respectively.

On to CLSTN1 (UniProt O94985), for which the log2 fold change in assay [4] is inactive: -0.138; in assay [1], inactive: -0.142.

In the case of CKAP4 (UniProt Q07065), the log2 fold change is inactive: -0.045 in assay [4] and inactive: 0.085 in assay [1].

For the target CLIP2 (UniProt Q9UDT6), the log2 fold change in assay [2] is inactive: 0.033; in assay [3] it was inactive: -0.1; in assay [4], inactive: -0.032; in assay [1] it was inactive: 0.002.
